Hit rate of the full screen: of about 320,000 compounds, about 22,000 (6.9%) were called active. Inconclusive results, whose numbers are uncertain, are shown with a selection of clear calls. Calls come from the whole dose curve; as a rule, active = well fitted inhibition curve with a large enough effect; inconclusive = small, poorly fitted or top-dose-only effect, or another doubt; inactive = no such curve, though single readings can be large or run the other way. Where the call is inconclusive, the potency comes from a doubtful curve fit.
Test: Primary qHTS for delayed death inhibitors of the malarial parasite plastid, 96 hour incubation
Conditions: P. falciparum luciferase reporter growth; series mostly up to 28.7 µM
Procedure, shortened: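 Delayed-death screen, second-generation endpoint: infected erythrocytes, 2% hematocrit, 0.05% parasitemia final; 96 hours at 37 C, 5% CO2; luciferase detection reagent; luminescence decrease equals reduced growth.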
% is set by controls: 0 for no effect and ±100 for the full control effect; potency is the fitted concentration of half-maximal effect.

| Compound | Potency | activity change, negative = inhibition |
| --- | --- | --- |
| Cc1ccc(-n2c(CSc3nc(C)cc(C)n3)nnc2SCC(=O)Nc2nccs2)cc1 | inconclusive: 13.1 µM [inhibitor, partial curve, poor fit] |  |
| O=C(Nc1ccc(NC(=O)c2ccco2)cc1)c1cnccn1 | inconclusive: 0.0026 µM [inhibitor, full curve, poor fit] |  |
| Cc1ccsc1C(=O)Nc1nnc(-c2ccco2)o1 | inactive |  |
| CCCCSCCCNC(=O)CS(=O)Cc1nc(-c2cccc(C)c2)oc1C (centres undefined) | inconclusive: 11.7 µM [inhibitor, single point] |  |
| Cc1cn(CCC(=O)Nc2ccccc2N2CCOCC2)c2ccccc12 | inconclusive: 18.5 µM [inhibitor, partial curve, poor fit] |  |
| CCOC(OCC)P(=O)(c1ccccc1)c1ccccc1 | active: 11.7 µM |  |
| CC(=O)Nc1ccc(S(=O)(=O)CCC#N)cc1 | inconclusive: 5.86 µM [inhibitor, partial curve, poor fit] |  |
| CC(C)(C)c1ccc(-c2cnco2)cc1 | inactive |  |
| O=C(Nc1ccc(Cl)cc1)c1ccc2nsnc2c1 | inactive |  |
| CC(C#N)Sc1ncnc2sc3c(c12)CCC3 (centres undefined) |  | inactive: -4.32% [at 5.75 µM] |
| Cc1cc(/C=C2/NC(=O)NC2=O)c(C)n1-c1ccc(N2CCOCC2)cc1 | inconclusive: 0.0928 µM [inhibitor, full curve, poor fit] |  |
| COc1cc2c(cc1OC)C(COc1ccc(C(C)C)cc1)NCC2 (centres undefined) | active: 11.7 µM |  |
| CCCOC(=O)c1c(NC(=O)c2cnn3c2NC(c2ccccc2)CC3C(F)(F)F)sc2c1CCCC2 (centres undefined) | inconclusive: 11.7 µM [inhibitor, single point] |  |
| N/C(=N\OC(=O)c1cccc(Cn2cc(C(F)(F)F)ccc2=O)c1)c1ccccc1 | inconclusive: 20.8 µM [inhibitor, partial curve, poor fit] |  |
| COc1cc(/C=C(\C#N)c2nnc(N3CCOCC3)n2-c2ccccc2)ccc1O | inconclusive: 0.828 µM [inhibitor, partial curve, poor fit] |  |
| O=C(Nc1ccc(S(=O)(=O)N2CCOCC2)cc1)c1ccc2c(c1)S(=O)(=O)c1ccccc1C2=O | inconclusive: 11.7 µM [inhibitor, single point] |  |
| O=C(O)c1cc(-c2cccs2)nn1-c1ccccc1 | inactive |  |
| COC(=O)Cn1ncc2c3ccccc3n(C)c2c1=O | inconclusive: 16.5 µM [inhibitor, single point] |  |
| COc1cccc(CNC(=O)Cc2ccc(NC3=NC4CS(=O)(=O)CC4S3)cc2)c1 (centres undefined) | inconclusive: 18.5 µM [inhibitor, single point] |  |
| O=C(Nc1ccc(S(=O)(=O)N2CCOCC2)cc1)c1nn(-c2ccc(F)cc2)ccc1=O | inconclusive: 2.08 µM [inhibitor, single point] |  |
| Cc1ccc(CNC(=O)Cn2ccc3cc(S(=O)(=O)N4CCCC4)ccc32)o1 | inactive |  |
| Cc1ccc(-n2c(C)cc(C=C(C#N)C#N)c2C)cc1 | inconclusive: 4.65 µM [inhibitor, partial curve, poor fit] |  |
| Cn1c(=O)c2c(nc(N/N=C/c3cccs3)n2Cc2ccccc2)n(C)c1=O | active: 10.4 µM |  |

| Compound | Potency | activity change, negative = inhibition |
| --- | --- | --- |
| CC(=O)C1=C(O)C(=O)N(c2cccc(Br)c2)C1c1ccc(Br)cc1 (centres undefined) | inconclusive: 14.7 µM [inhibitor, single point] |  |
| Cc1nn(C)cc1S(=O)(=O)NC1CCCC1 | inactive |  |
| O=C(Nc1ccc(Cl)cc1)NC1CCCC1Cc1ccco1 (centres undefined) | inconclusive: 18.5 µM [inhibitor, single point] |  |
| COc1ccc(CNC(=O)CNS(=O)(=O)c2cccs2)cc1 | inactive |  |
| CC(=O)Nc1ccc(N/C(C)=C/C(=O)c2cccnc2)cc1 | inactive |  |
| Nc1nonc1C(=O)OCC(=O)c1ccc(Cl)cc1 | inactive |  |
| Cc1cc(CN2C(=O)c3ccccc3C2=O)cc(N2CCOCC2)c1 | inconclusive: 0.37 µM [inhibitor, partial curve, poor fit] |  |
| COc1ccc(/C=N/NC(=O)CNS(=O)(=O)c2ccccc2)cc1 | inconclusive: 1.85 µM [inhibitor, full curve, poor fit] |  |
| COc1ccc(/C=N/NC(=O)c2cccc(Br)c2)cc1Cn1cc(Cl)cn1 | inconclusive: 18.5 µM [inhibitor, single point] |  |
| CCOC(=O)C1CCCN(C(=O)c2ccc(Cl)c(S(=O)(=O)N3CCCCC3)c2)C1 (centres undefined) | inconclusive: 9.28 µM [inhibitor, single point] |  |
| COc1ccc(Cl)cc1Nc1nc(-c2cccnc2)cs1 | inactive |  |
| CC1=C(C#N)C(c2ccccc2)C2=C(N1)c1ccccc1C2=O (centres undefined) | active: 14.7 µM |  |
| CC(=O)C[C@H](c1ccc([N+](=O)[O-])cc1)c1c(O)c2ccccc2oc1=O | inconclusive: 3.61 µM [inhibitor, partial curve, poor fit] |  |
| COc1cc2nc(Nc3cccc(F)c3)nc(N)c2cc1OC | inconclusive: 0.465 µM [inhibitor, full curve, poor fit] |  |
| CCOC(=O)[C@@H]1[C@H]2COc3ccc(Br)cc3[C@H]2N2C(=O)N(c3ccc(Cl)cc3)C(=O)[C@@]12C | active: 11.7 µM |  |
| CCOC(=O)CSc1nc2cc3c(cc2cc1C)OCO3 | inconclusive: 18.5 µM [inhibitor, single point] |  |
| COc1cccc(-c2c(C(=O)N/N=C(\C)COc3ccccc3)nnn2-c2nonc2N)c1 | inactive |  |
| CCOC(=O)C1CCN(c2c(N3CCN(c4ccccc4OC)CC3)c(=O)c2=O)CC1 | inconclusive: 4.65 µM [inhibitor, partial curve, poor fit] |  |
| CC[C@@H]1CC=C[C@H]2[C@H]1C(=O)N(Cc1ccccc1)[C@H]2c1ccoc1 | inconclusive: 18.5 µM [inhibitor, single point] |  |
| CN(C)C(CNC(=O)c1ccc(Cl)c(S(=O)(=O)N2CCCCCC2)c1)c1ccccc1 (centres undefined) | inconclusive: 4.15 µM [inhibitor, partial curve, poor fit] |  |
| CCCC(=O)Nc1ccc(NC(=O)c2ccccc2Cl)nc1 | inconclusive: 10.4 µM [inhibitor, partial curve, poor fit] |  |
| CC1CC(C)CN(S(=O)(=O)c2ccc(NC(=O)CN3C(=O)NC(C)(c4ccccc4)C3=O)cc2)C1 (centres undefined) | inactive |  |
| Cc1cc(C)c(CSc2ncc(-c3ccc([N+](=O)[O-])cc3)[nH]2)c(C)c1 | inconclusive: 13.1 µM [inhibitor, single point] |  |

One compound at a time (already shown):
CN(C)C(CNC(=O)c1ccc(Cl)c(S(=O)(=O)N2CCCCCC2)c1)c1ccccc1 (centres undefined) is entered as Potency: inconclusive: 4.15 µM [inhibitor, partial curve, poor fit]
COc1cc2nc(Nc3cccc(F)c3)nc(N)c2cc1OC is entered as Potency: inconclusive: 0.465 µM [inhibitor, full curve, poor fit]
COc1ccc(/C=N/NC(=O)c2cccc(Br)c2)cc1Cn1cc(Cl)cn1 is entered as Potency: inconclusive: 18.5 µM [inhibitor, single point]
CC(=O)C[C@H](c1ccc([N+](=O)[O-])cc1)c1c(O)c2ccccc2oc1=O is entered as Potency: inconclusive: 3.61 µM [inhibitor, partial curve, poor fit]

Additional entries follow.

| Compound | Potency | activity change, negative = inhibition |
| --- | --- | --- |
| COCCN(CCOC)S(=O)(=O)c1ccc(C(=O)Nc2nc(C)c(C(C)=O)s2)cc1 | inconclusive: 18.5 µM [inhibitor, single point] |  |
| CC(C)C(C(=O)NC(C)(C)C)N(CCN1CCOCC1)C(=O)CNS(=O)(=O)c1ccccc1 (centres undefined) | active: 1.85 µM |  |
| CCc1cc(C(=O)c2ccc(OC)cc2)c(NC(=O)CN2CCCC2)s1 | inconclusive: 0.738 µM [inhibitor, full curve] |  |
| O=C(c1cc2nc(-c3ccccc3)cc(C(F)(F)F)n2n1)N1CCN2CCCC2C1 (centres undefined) | inconclusive: 0.147 µM [inhibitor, full curve, poor fit] |  |
| COc1ccc(CCNC(=O)c2cccs2)cc1OC | inactive |  |
| CC(C)c1ccc(NC(=O)CSc2nc(=O)n(CCN3CCOCC3)c3c2CCC3)cc1 | inconclusive: 16.5 µM [inhibitor, partial curve, poor fit] |  |
| O=C(COC(=O)c1c2c(nc3ccccc13)CCCCC2)c1ccc(Cl)s1 | inconclusive: 10.4 µM [inhibitor, single point] |  |
| O=C(Nc1ccccc1)C1CC(=O)N(C2CCCCC2)C1 (centres undefined) | inactive |  |
| CCOC(=O)CNC(=O)N1CCCC(C(=O)c2ccccc2SC)C1 (centres undefined) | inactive |  |
| CC1CC(C)CN(C(=S)NC2CCCCC2)C1 (centres undefined) | inconclusive: 11.7 µM [inhibitor, single point] |  |
| CC(=O)C1=C(O)C(=O)N(c2cc(C(C)(C)C)on2)C1c1ccc(C(C)C)cc1 (centres undefined) | active: 13.1 µM |  |
| CCc1ccc(-c2cc(C)no2)cc1S(=O)(=O)NC(C)Cc1ccco1 (centres undefined) | inactive |  |
| CC(C)C(=O)N1CCN(c2ccccc2NC(=O)c2cccc3ccccc23)CC1 | inconclusive: 13.1 µM [inhibitor, single point] |  |
| COCCC(=O)N(Cc1ccc2c(c1)OCO2)C(C(=O)NC1CCCCC1)c1ccncc1 (centres undefined) | inactive |  |
| Cc1ccc2c(c1)C(c1ccccc1)N(C(=O)c1ccc(Br)cc1)CC(=O)N2 (centres undefined) | inactive |  |
| CSc1cccc(NC(=O)C2CCCN2S(=O)(=O)c2ccc(Br)s2)c1 (centres undefined) | active: 10.4 µM |  |
| CCC1Oc2ccc(C)cc2N(CC(=O)N(Cc2ccc(C)o2)C2CC(C)(C)NC(C)(C)C2)C1=O (centres undefined) | inconclusive: 18.5 µM [inhibitor, single point] |  |
| COc1cc2[nH]c(=O)n(CCCC(=O)NC3CCCCC3)c(=O)c2cc1OC | inconclusive: 11.7 µM [inhibitor, single point] |  |
| CCn1c(SCC(=O)N2CCCCC2)nc2c(c1=O)SC(C)C2 (centres undefined) | inconclusive: 8.28 µM [inhibitor, single point] |  |
| CC(NC(=O)CCc1nc2cc(S(=O)(=O)N3CCOCC3)ccc2n1C)c1ccc(S(N)(=O)=O)cc1 (centres undefined) | inconclusive: 14.7 µM [inhibitor, partial curve, poor fit] |  |
| Clc1ccc(-c2nnnn2-c2ccc(Cl)c(Cl)c2)cc1Cl | inconclusive: 11.7 µM [inhibitor, single point] |  |
| Cc1ccc2nc(SCc3cn4cccnc4n3)[nH]c2c1 | inactive |  |
| O=C(N/N=C/c1ccc(N2CCOCC2)o1)c1ccccc1[N+](=O)[O-] | inactive |  |

Reference: PubChem BioAssay AID504834 (National Center for Advancing Translational Sciences (NCATS), 2011)
